For experiment [1], the target named is T1, ZNHIT1 (endogenous, mouse LSK and MPP cells) (mouse (endogenous in LSK and MPP cells)) (UniProt Q8R331).
T1 sequence: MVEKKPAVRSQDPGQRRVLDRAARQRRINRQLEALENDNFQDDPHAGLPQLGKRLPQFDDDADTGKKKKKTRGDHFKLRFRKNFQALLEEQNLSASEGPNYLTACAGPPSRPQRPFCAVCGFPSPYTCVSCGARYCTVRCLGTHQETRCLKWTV
Briefly: co-IP; mouse MPP lysates, anti-SRCAP antibody and protein A/G beads, 4 °C overnight; recombinant PCID2 protein added at different concentrations displaces ZNHIT1 of the lysate from SRCAP; only the binder purified.

Chains of the proteins cited; added tags and fusions are not shown.
UniProt Q8BFV2: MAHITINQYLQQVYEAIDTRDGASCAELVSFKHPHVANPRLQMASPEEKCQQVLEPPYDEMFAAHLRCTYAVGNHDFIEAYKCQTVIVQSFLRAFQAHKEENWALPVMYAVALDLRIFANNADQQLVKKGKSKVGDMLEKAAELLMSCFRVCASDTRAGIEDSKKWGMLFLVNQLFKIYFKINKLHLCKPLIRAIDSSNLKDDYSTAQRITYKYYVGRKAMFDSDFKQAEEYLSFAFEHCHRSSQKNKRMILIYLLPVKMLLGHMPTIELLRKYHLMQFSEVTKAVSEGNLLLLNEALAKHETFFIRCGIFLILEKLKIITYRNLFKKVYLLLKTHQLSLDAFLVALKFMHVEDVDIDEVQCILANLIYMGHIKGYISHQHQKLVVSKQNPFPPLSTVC

For experiment [2], the target named is PCID2 (endogenous, mouse LSK cells) (mouse (endogenous in LSK cells)) (UniProt Q8BFV2). Briefly: co-IP; mouse LSK lysates incubated with anti-PCID2 antibody, rabbit IgG as control; ZNHIT1 detected by immunoblotting. A general note: A western blot detects proteins with antibodies after separation by electrophoresis.

Results are given in words; binding and its absence hold for the method and conditions named. Binding seen in cells or lysates may run through a third protein. Some entries that bind do so weakly or less than the wild type.

In the case of “His-PCID2 (PCI domain-containing protein 2) (from UniProt Q8BFV2 1-399)”, the binding result in experiment [1] was “binds”.

B1: GST-ZNHIT1 (Zinc finger HIT-type containing 1) (natural protein, mouse, UniProt Q8R331 1-154, looked up)
chain: MVEKKPAVRSQDPGQRRVLDRAARQRRINRQLEALENDNFQDDPHAGLPQLGKRLPQFDDDADTGKKKKKTRGDHFKLRFRKNFQALLEEQNLSASEGPNYLTACAGPPSRPQRPFCAVCGFPSPYTCVSCGARYCTVRCLGTHQETRCLKWTV
notes: ZNHIT1 (Zinc finger HIT-type containing 1, p18^hamlet), mouse Znhit1 cloned into pGEX-6P-1; Vector pGEX-6P-1; also called GST-tagged ZNHIT1; p18^hamlet; source: E. coli, purified (Glutathione Sepharose 4B)
In the case of B1, the binding entry in experiment [2] was “binds”.

(Values after PMC5686073, “Suppression of SRCAP chromatin remodelling complex and restriction of lymphoid lineage commitment by Pcid2” (Nature Communications, 2017).)
